No constants are given. Whether binding was seen depends on the method and setting. In cells and extracts the contact can be indirect. Some entries that bind do so weakly or less than the wild type. Tags and fused reporters may be left off the sequences shown.
Key:
Assay in all cases: co-IP; FLAG-RIN family, FLAG-mock or deletion mutants of FLAG-RINL transfected into HEK293T; lysates immunoprecipitated with anti-FLAG; endogenous odin blotted
FLAG-RIN1 = biological target: T1, FLAG-RIN1 (UniProt Q13671)
T1 sequence: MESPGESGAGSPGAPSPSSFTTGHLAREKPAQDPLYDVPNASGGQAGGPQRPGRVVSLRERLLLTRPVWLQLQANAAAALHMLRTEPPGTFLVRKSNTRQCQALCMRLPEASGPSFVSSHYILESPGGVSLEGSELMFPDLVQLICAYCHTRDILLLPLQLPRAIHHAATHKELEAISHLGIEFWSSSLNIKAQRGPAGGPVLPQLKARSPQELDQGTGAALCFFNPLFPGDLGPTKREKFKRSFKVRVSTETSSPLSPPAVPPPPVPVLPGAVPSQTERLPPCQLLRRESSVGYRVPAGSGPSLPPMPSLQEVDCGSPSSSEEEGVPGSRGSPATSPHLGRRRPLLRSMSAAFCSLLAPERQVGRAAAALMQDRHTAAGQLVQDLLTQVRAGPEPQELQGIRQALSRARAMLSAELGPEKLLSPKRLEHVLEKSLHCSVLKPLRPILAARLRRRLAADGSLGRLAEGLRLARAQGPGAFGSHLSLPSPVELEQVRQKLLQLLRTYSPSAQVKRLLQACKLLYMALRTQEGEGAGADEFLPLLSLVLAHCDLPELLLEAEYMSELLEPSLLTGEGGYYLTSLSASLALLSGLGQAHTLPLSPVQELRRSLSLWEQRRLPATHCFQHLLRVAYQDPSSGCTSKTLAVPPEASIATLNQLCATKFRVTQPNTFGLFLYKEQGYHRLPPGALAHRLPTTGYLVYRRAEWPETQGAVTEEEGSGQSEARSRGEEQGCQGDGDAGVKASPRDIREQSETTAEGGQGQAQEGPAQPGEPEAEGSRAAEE

FLAG-RIN2 = biological target: T2, FLAG-RIN2 (UniProt Q8WYP3)
T2 sequence: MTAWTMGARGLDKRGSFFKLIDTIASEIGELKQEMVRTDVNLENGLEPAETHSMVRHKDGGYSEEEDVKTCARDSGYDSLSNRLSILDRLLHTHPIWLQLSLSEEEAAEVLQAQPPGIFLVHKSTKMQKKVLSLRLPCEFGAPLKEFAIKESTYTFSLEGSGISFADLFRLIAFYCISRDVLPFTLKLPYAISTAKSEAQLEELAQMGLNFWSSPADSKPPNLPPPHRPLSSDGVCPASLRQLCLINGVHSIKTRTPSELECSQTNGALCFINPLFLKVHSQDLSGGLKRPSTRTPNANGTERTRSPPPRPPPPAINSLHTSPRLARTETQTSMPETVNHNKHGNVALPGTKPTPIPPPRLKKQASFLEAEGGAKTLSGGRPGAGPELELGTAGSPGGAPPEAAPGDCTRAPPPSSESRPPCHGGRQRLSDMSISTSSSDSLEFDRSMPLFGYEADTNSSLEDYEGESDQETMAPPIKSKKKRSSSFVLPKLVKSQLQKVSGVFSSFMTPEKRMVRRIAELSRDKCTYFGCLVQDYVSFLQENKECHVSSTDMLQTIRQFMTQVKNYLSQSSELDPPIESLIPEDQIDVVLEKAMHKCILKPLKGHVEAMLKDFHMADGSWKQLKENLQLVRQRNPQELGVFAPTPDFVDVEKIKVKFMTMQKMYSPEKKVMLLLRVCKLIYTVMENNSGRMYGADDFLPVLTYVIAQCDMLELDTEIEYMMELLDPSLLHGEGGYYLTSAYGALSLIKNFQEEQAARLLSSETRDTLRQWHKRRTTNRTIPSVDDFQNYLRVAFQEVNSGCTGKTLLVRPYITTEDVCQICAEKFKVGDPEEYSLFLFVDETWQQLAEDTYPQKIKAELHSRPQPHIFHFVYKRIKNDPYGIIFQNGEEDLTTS

FLAG-RIN3 = biological target: T3, FLAG-RIN3 (UniProt Q8TB24)
T3 sequence: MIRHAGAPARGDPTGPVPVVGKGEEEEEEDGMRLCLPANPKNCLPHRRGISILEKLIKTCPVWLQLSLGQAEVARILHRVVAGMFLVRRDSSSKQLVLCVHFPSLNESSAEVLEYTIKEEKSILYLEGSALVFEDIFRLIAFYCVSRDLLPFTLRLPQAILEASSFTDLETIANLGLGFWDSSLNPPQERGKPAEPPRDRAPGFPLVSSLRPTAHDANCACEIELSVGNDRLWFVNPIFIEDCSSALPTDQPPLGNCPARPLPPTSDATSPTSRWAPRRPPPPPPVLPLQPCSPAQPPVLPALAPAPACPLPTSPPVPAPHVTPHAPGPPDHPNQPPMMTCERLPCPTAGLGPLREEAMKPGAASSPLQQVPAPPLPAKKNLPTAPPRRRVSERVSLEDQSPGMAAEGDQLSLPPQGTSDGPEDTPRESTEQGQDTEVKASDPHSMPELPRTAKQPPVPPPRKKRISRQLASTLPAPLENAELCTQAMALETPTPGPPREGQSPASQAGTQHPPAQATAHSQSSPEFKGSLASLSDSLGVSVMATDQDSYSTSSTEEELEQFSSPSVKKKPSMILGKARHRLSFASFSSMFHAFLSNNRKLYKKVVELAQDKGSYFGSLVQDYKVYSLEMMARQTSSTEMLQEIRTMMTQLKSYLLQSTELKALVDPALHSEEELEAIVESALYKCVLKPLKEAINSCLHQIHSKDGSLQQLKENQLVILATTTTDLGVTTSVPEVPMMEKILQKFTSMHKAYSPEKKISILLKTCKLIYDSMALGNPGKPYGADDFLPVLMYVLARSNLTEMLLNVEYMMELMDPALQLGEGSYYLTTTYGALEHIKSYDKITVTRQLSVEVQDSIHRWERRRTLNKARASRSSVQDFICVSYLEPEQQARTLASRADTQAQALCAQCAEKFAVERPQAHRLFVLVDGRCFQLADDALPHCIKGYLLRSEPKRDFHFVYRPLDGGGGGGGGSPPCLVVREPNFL

B1: endogenous odin (HEK293T) (protein, UniProt Q92625 1-1134)
chain: MGKEQELLEAARTGHLPAVEKLLSGKRLSSGFGGGGGGGSGGGGGGSGGGGGGLGSSSHPLSSLLSMWRGPNVNCVDSTGYTPLHHAALNGHKDVVEVLLRNDALTNVADSKGCYPLHLAAWKGDAQIVRLLIHQGPSHTRVNEQNNDNETALHCAAQYGHTEVVKVLLEELTDPTMRNNKFETPLDLAALYGRLEVVKMLLNAHPNLLSCNTKKHTPLHLAARNGHKAVVQVLLDAGMDSNYQTEMGSALHEAALFGKTDVVQILLAAGTDVNIKDNHGLTALDTVRELPSQKSQQIAALIEDHMTGKRSTKEVDKTPPPQPPLISSMDSISQKSQGDVEKAVTELIIDFDANAEEEGPYEALYNAISCHSLDSMASGRSSDQDSTNKEAEAAGVKPAGVRPRERPPPPAKPPPDEEEEDHIDKKYFPLTASEVLSMRPRIHGSAAREEDEHPYELLLTAETKKVVLVDGKTKDHRRSSSSRSQDSAEGQDGQVPEQFSGLLHGSSPVCEVGQDPFQLLCTAGQSHPDGSPQQGACHKASMQLEETGVHAPGASQPSALDQSKRVGYLTGLPTTNSRSHPETLTHTASPHPGGAEEGDRSGARSRAPPTSKPKAELKLSRSLSKSDSDLLTCSPTEDATMGSRSESLSNCSIGKKRLEKSPSFASEWDEIEKIMSSIGEGIDFSQERQKISGLRTLEQSVGEWLESIGLQQYESKLLLNGFDDVHFLGSNVMEEQDLRDIGISDPQHRRKLLQAARSLPKVKALGYDGNSPPSVPSWLDSLGLQDYVHSFLSSGYSSIDTVKNLWELELVNVLKVQLLGHRKRIIASLADRPYEEPPQKPPRFSQLRCQDLLSQTSSPLSQNDSCTGRSADLLLPPGDTGRRRHDSLHDPAAPSRAERFRIQEEHREAKLTLRPPSLAAPYAPVQSWQHQPEKLIFESCGYEANYLGSMLIKDLRGTESTQDACAKMRKSTEHMKKIPTIILSITYKGVKFIDASNKNVIAEHEIRNISCAAQDPEDLCTFAYITKDLQTSHHYCHVFSTVDVNLTYEIILTLGQAFEVAYQLALQAQKSRATGASAAEMIETKSSKPVPKPRVGVRKSALEPPDMDQDAQSHASVSWVVDPKPDSKRSLSTN
binding (FLAG-RIN1): binds weakly | binding (FLAG-RIN2): binds weakly | binding (FLAG-RIN3): no binding
